Assay results as given in PubChem BioAssay AID330 (DTP/NCI, 2004).
The list shows only some results of the screen, not a fair sample: it gathers tests that were run many times, whatever their T/C, doses with no T/C, and many T/C values between a quarter and a half above the control. Other doses and runs of a compound stand elsewhere. T/C is the treated group as % of the vehicle group. Some doses have a count of surviving animals in place of a T/C: the source files T/C as zero there, which appears to mark a toxic dose or a test without result, not a measured value. Some survivor counts are full or nearly so, which does not show that the dose was tolerated: survival well below the control is almost never listed, so the zero probably covers shortened survival too. Survivors were counted at the toxicity check, usually on the fifth day, unless a day is given; later deaths do not show. Schedules are NCI's codes, taken here to give the interval after Q, in days (D) or hours (H), and the number of doses after X. Some structures stand for samples that the source files as different forms (salt, stereo form or complex); doses refer to the form tested. For survival time, the PubChem record calls one and a half times the control and up active, and a quarter to a half above the control has no call in these data; cut-offs in other NCI protocols can differ. Some doses were run more than once; their values stand side by side, smallest first. Some T/C values carry the count of animals alive at the toxicity check (mostly the fifth day); where none is given, no animal had died by that day.

Test system: P388 leukemia ip, CD2F1 mice, survival T/C
Test: NCI In Vivo Anticancer Drug Screen. Data for tumor model P388 Leukemia (intraperitoneal) in CD2F1 (CDF1) mice
Conditions: T/C endpoint: median survival time, higher T/C = longer survival
[1] = dose: 100.0 mg/kg/injection, schedule: Q01DX005 (ip), vehicle: saline with Tween-80
[2] = dose: 200.0 mg/kg/injection, schedule: Q01DX005 (ip), vehicle: saline with Tween-80
[3] = dose: 200.0 mg/kg/injection, schedule: Q01DX009 (ip), vehicle: other
[4] = dose: 100.0 mg/kg/injection, schedule: Q01DX005 (ip), vehicle: saline
[5] = dose: 200.0 mg/kg/injection, schedule: Q01DX005 (ip), vehicle: saline
[6] = dose: 200.0 mg/kg/injection, schedule: Q01DX009 (ip), vehicle: Klucel (hydroxypropylcellulose) (HPC)
[7] = dose: 50.0 mg/kg/injection, schedule: Q01DX005 (ip), vehicle: saline with Tween-80
[8] = dose: 50.0 mg/kg/injection, schedule: Q01DX009 (ip), vehicle: saline

Compound: Nc1ncnc2c1ncn2C1OC(COP(=O)(O)O)C(O)C1O (stereo not given)
- survivor count (dose: 25.0 mg/kg/injection, schedule: Q01DX009 (ip), vehicle: saline): 6 of 6
- T/C (dose: 37.5 mg/kg/injection, schedule: Q03HX016 (ip), vehicle: saline): 130 % of control
- T/C (dose: 37.5 mg/kg/injection, schedule: Q03HX024 (ip), vehicle: saline): 130 % of control
- T/C (dose: 50.0 mg/kg/injection, schedule: Q03HX016 (ip), vehicle: water): 146 % of control
- T/C (dose: 50.0 mg/kg/injection, schedule: Q03HX024 (ip), vehicle: water): 144 % of control
- T/C (dose: 100.0 mg/kg/injection, schedule: Q01DX009 (ip), vehicle: water): 132 % of control
- T/C (dose: 150.0 mg/kg/injection, schedule: Q03HX024 (ip), vehicle: water): 126 % of control
- T/C (dose: 160.0 mg/kg/injection, schedule: Q01DX009 (ip), vehicle: water): 127 % of control
- T/C (dose: 200.0 mg/kg/injection, schedule: Q01DX005 (ip), vehicle: water): 131 % of control
- T/C (dose: 200.0 mg/kg/injection, schedule: Q01DX009 (ip), vehicle: water): 149 % of control
- T/C (dose: 250.0 mg/kg/injection, schedule: Q03HX024 (ip), vehicle: water): 133 % of control
- T/C (dose: 320.0 mg/kg/injection, schedule: Q01DX009 (ip), vehicle: water): 125 and 133 % of control
- T/C (dose: 400.0 mg/kg/injection, schedule: Q01DX005 (ip), vehicle: water): 137 % of control
- survivor count (dose: 400.0 mg/kg/injection, schedule: Q01DX009 (oral), vehicle: water): 8 of 10
- T/C (dose: 400.0 mg/kg/injection, schedule: Q03HX009 (ip), vehicle: water): 149 % of control
- T/C (dose: 640.0 mg/kg/injection, schedule: Q01DX009 (ip), vehicle: water): 142 % of control
- T/C (dose: 800.0 mg/kg/injection, schedule: Q03HX024 (ip), vehicle: water): 138 % of control
- T/C (dose: 800.0 mg/kg/injection, schedule: Q04DX003 (ip), vehicle: water): 128 % of control
- T/C (dose: 1600.0 mg/kg/injection, schedule: Q04DX003 (ip), vehicle: water): 130 % of control
- T/C (dose: 1600.0 mg/kg/injection, schedule: Q08DX002 (ip), vehicle: water): 132 % of control

Compound: C=C1C(=O)OC2/C=C(\C)CC(O)/C=C(/CO)CC(OC(=O)/C(C)=C/C)C12 (stereo not given)
- T/C (dose: 15.0 mg/kg/injection, schedule: Q01DX009 (ip), vehicle: saline + alcohol): 128 % of control
- T/C (dose: 20.0 mg/kg/injection, schedule: Q01DX009 (ip), vehicle: saline + alcohol): 148 % of control
- T/C (dose: 30.0 mg/kg/injection, schedule: Q01DX009 (ip), vehicle: saline + alcohol): 128 % of control [5 of 6 alive]
- T/C (dose: 40.0 mg/kg/injection, schedule: Q01DX009 (ip), vehicle: saline + alcohol): 130 % of control
- T/C (dose: 60.0 mg/kg/injection, schedule: Q01DX009 (ip), vehicle: saline + alcohol): 131 % of control

Compound: C/C=C/C(=O)Oc1ccc[nH]c1=O
- survivor count (dose: 200.0 mg/kg/injection, schedule: Q01DX005 (ip), vehicle: Klucel (hydroxypropylcellulose) (HPC)): 6 of 6

Compound: CC1=C(/C=C/C(C)=C/C=C/C(C)=C/C(=O)Nc2ccc(O)cc2)C(C)(C)CCC1
- survivor count [1]: 6 of 6
- survivor count [2]: 6 of 6

Compound: Cc1[nH]nc(C(N)=O)c1N=NN(C)C
- T/C (dose: 25.0 mg/kg/injection, schedule: Q01DX009 (ip), vehicle: saline with Tween-80): 145 % of control
- survivor count (dose: 100.0 mg/kg/injection, schedule: Q01DX009 (ip), vehicle: saline with Tween-80): 6 of 6
- survivor count (dose: 200.0 mg/kg/injection, schedule: Q01DX009 (ip), vehicle: saline with Tween-80): 4 of 6
- T/C (dose: 200.0 mg/kg/injection, schedule: Q04DX003 (ip), vehicle: saline with Tween-80): 145 % of control [5 of 6 alive]
- survivor count (dose: 300.0 mg/kg/injection, schedule: Q04DX003 (ip), vehicle: saline with Tween-80): 6 of 6

Compound: COc1ccc2nc3cc(Cl)ccc3c(Nc3ccccc3NS(C)(=O)=O)c2n1
- T/C [3]: 128 % of control
- survivor count (dose: 300.0 mg/kg/injection, schedule: Q01DX009 (ip), vehicle: other): 0 of 6
- survivor count (dose: 400.0 mg/kg/injection, schedule: Q01DX009 (ip), vehicle: other): 0 of 6

Compound: CCc1nc(N)nc(N)c1-c1ccc(OC)c([N+](=O)[O-])c1
- T/C (dose: 60.0 mg/kg/injection, schedule: Q01DX005 (ip), vehicle: saline with Tween-80): 142 and 146 % of control

Compound: CCCc1c(C(=O)OCCCN(CC)CC)c(C(=O)OCCCN(CC)CC)c(CCC)n1-c1ccccc1
- survivor count (dose: 50.0 mg/kg/injection, schedule: Q01DX005 (ip), vehicle: saline): 4 of 5
- survivor count [4]: 0 of 5
- survivor count [5]: 0 of 5

Compound: COC1CC(C)(O)Cc2cc3c(c(O)c21)C(=O)c1c(O)cc2c(c1C3=O)OC1OC2(C)C(O)C(N(C)C)C1O (stereo not given)
- T/C (dose: 1.6 mg/kg/injection, schedule: Q01DX009 (ip), vehicle: other): 128 % of control
- T/C (dose: 3.16 mg/kg/injection, schedule: Q01DX009 (ip), vehicle: other): 141 % of control

Compound: C[n+]1c(-c2cc(Cl)cc(Cl)c2)c2cc(N)ccc2c2ccccc21
- survivor count (dose: 50.0 mg/kg/injection, schedule: Q01DX009 (ip), vehicle: water): 3 of 6

Compound: O=C(Nc1ccc(N=C=S)cc1)c1cc(Br)cc(Br)c1O
- survivor count (dose: 200.0 mg/kg/injection, schedule: Q01DX001 (ip), vehicle: Klucel (hydroxypropylcellulose) (HPC)): 0 of 6

Compound: C=Cn1c([N+](=O)[O-])cnc1/C=C/c1ccc(C(=O)O)cc1
- survivor count [6]: 6 of 6

Compound: CC(C)C1(C(=O)NNC(=O)CCCc2ccc(N(CCCl)CCCl)cc2)OC2(O)CCCCCN2C1=O (stereo not given)
- T/C (dose: 25.0 mg/kg/injection, schedule: Q04DX003 (ip), vehicle: Klucel (hydroxypropylcellulose) (HPC)): 126 % of control
- T/C (dose: 50.0 mg/kg/injection, schedule: Q04DX003 (ip), vehicle: Klucel (hydroxypropylcellulose) (HPC)): 149 % of control

Compound: CNC(=O)OCc1c(COC(=O)NC)c(C)n(-c2ccccc2)c1C
- T/C (dose: 25.0 mg/kg/injection, schedule: Q01DX009 (ip), vehicle: Klucel (hydroxypropylcellulose) (HPC)): 127 % of control
- survivor count (dose: 50.0 mg/kg/injection, schedule: Q01DX009 (ip), vehicle: Klucel (hydroxypropylcellulose) (HPC)): 6 of 6
- survivor count (dose: 100.0 mg/kg/injection, schedule: Q01DX009 (ip), vehicle: Klucel (hydroxypropylcellulose) (HPC)): 5 of 6
- survivor count [6]: 0 of 6

Compound: CN(C)c1ccc(C(=C(c2ccc(N(C)C)cc2)c2ccc(N(C)C)cc2)c2ccc(N(C)C)cc2)cc1
- survivor count [7]: 1 of 6
- survivor count [1]: 0 of 6
- survivor count [2]: 0 of 6

Compound: CCN(CC)CCSCCNc1cc(OC)cc2cccnc12
- survivor count [4]: 0 of 5
- survivor count [5]: 0 of 5

Compound: O=C1C=C(CCC2=CC(=O)c3ccccc3C2=O)C(=O)c2ccccc21
- survivor count (dose: 240.0 mg/kg/injection, schedule: Q01DX005 (ip), vehicle: saline with Tween-80): 6 of 6

Compound: CC1CN1P(=O)(N1CC=CCC1)N1CC1C (stereo not given)
- T/C (dose: 22.0 mg/kg/injection, schedule: Q01DX009 (ip), vehicle: saline): 145 % of control
- T/C [8]: 136 % of control

Compound: Fc1ccc(Nc2nnc(-c3ccc(Cl)cc3Cl)o2)cc1
- survivor count [1]: 6 of 6

Compound: O=C(O)c1cc2ccc(Cl)cc2[se]1
- survivor count (dose: 100.0 mg/kg/injection, schedule: Q01DX009 (ip), vehicle: saline): 6 of 6

Compound: Nc1cccnc1C1OCCO1
- survivor count [3]: 0 of 6

Compound: O=[N+]([O-])c1cccc(C2CC(c3ccccc3)=Nc3ccccc3S2)c1 (stereo not given)
- survivor count [6]: 1 of 6

Compound: C[n+]1cccc2ccccc21
- survivor count (dose: 200.0 mg/kg/injection, schedule: Q04DX003 (ip), vehicle: saline): 0 of 6
- survivor count (dose: 400.0 mg/kg/injection, schedule: Q04DX003 (ip), vehicle: saline): 0 of 6

Compound: O=C1CSc2ncccc2N1c1ccc([N+](=O)[O-])cn1
- survivor count [8]: 5 of 6

Compound: O=C1C(=O)c2cccc([N+](=O)[O-])c2-c2ccccc21
- T/C [7]: 125 % of control
- survivor count [2]: 2 of 5

Compound: C=C(C#N)C1OC2OC(C)(C)OC2C1OC (stereo not given)
- survivor count [2]: 0 of 6

Compound: CC1N(C)c2cc3[nH]c(=O)cc(C(F)(F)F)c3cc2C1(C)C (stereo not given)
- survivor count (dose: 400.0 mg/kg/injection, schedule: Q01DX001 (ip), vehicle: Klucel (hydroxypropylcellulose) (HPC)): 6 of 6
